PubChem BioAssay AID1224826, NIAID | 2016
Shown is one part, drawn at random, of about 17,000 reagents tested. In the full data, about 1,110 (6.6%) got an active call. 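Active means lowered or raised reporter signal; replicate intensities are raw and not normalised per plate.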 A number with no mark means an inactive call. Reagent sequences are not shown.

- Purpose: 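Knock-downs that raise or lower Tnf reporter signal after endotoxin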 (primary screen)
- Cell system: RAW264.7 G9 macrophages from mouse bearing reporters for p65 (GFP) and the Tnf promoter (mCherry)
- Reagents: siRNA pool against mouse genes, 100 nM
- Time to read-out: 16 h of LPS stimulation, after 2 days of siRNA transfection
- Conditions: bacterial lipopolysaccharide (Salmonella minnesota R595), 10 ng/ml
- Detection: 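Nuclear mCherry signal of the Tnf promoter reporter measured by imaging after background removal, scaled to each plate median and turned into robust z-scores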
- Reading the numbers: Tnf reporter robust z-score: higher = stronger Tnf promoter reporter signal after LPS; Tnf reporter intensity: higher = stronger Tnf promoter reporter signal
- Hit rule: 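Called active when robust z-score is at most -1.3, matching the median of the Tlr4 knock-down control, or over 3; control wells and wells with under 50 cells never active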
- Calls: active = Tnf reporter clearly lowered or raised; inactive = no clear change in Tnf reporter

The first 3 entries, to show the layout:
gene	Tnf reporter robust z-score	fewer than 50 cells in well	Tnf reporter intensity, replicate 1	Tnf reporter intensity, replicate 2
Zfp956	0.09	enough cells in well	211	194
Pramel48	1.68	enough cells in well	289	258
Map3k19	0.21	enough cells in well	213	170

Main list, from the first entry:
gene	Tnf reporter robust z-score	fewer than 50 cells in well	Tnf reporter intensity, replicate 1	Tnf reporter intensity, replicate 2
Zfp956	0.09	enough cells in well	211	194
Pramel48	1.68	enough cells in well	289	258
Map3k19	0.21	enough cells in well	213	170
Or5b12	0.42	enough cells in well	204	139
Msl3l2	1.13	enough cells in well	293	61.2
Fosl1	0.5	enough cells in well	333	245
Ccdc43	-0.23	enough cells in well	101	163
Gtf2a2	-0.98	enough cells in well	179	99.8
Phldb2	-0.53	enough cells in well	134	96.7
Pnoc		fewer than 50 cells per well; well left out of calls	97.9	132
Magea13		fewer than 50 cells per well; well left out of calls	148	45.2
Fbxo34	1.21	enough cells in well	359	185
Tex12		fewer than 50 cells per well; well left out of calls	91.4	75.1
Emc10		fewer than 50 cells per well; well left out of calls	108	87.1
Or10g3	0.41	enough cells in well	190	148
Sod3	0.19	enough cells in well	301	225
Mrpl34	0.19	enough cells in well	244	111
Vmn1r228	-1.39 (active)	enough cells in well	65.3	42.3
Gmfg		fewer than 50 cells per well; well left out of calls	196	144
Ly6d	1.98	enough cells in well	319	242
Nudt19		fewer than 50 cells per well; well left out of calls	121	98
Nrip3	-1.06	enough cells in well	127	52.7
St6galnac4	1.81	enough cells in well	129	199
Gtf2b	0.32	enough cells in well	277	267
